{"sequences": {"note": "The chains behind the UniProt entries cited, without tags or fusion partners. Where a name states a change or a piece, a line headed by the entry shows the natural chain unless it says otherwise.", "UniProt P23979": "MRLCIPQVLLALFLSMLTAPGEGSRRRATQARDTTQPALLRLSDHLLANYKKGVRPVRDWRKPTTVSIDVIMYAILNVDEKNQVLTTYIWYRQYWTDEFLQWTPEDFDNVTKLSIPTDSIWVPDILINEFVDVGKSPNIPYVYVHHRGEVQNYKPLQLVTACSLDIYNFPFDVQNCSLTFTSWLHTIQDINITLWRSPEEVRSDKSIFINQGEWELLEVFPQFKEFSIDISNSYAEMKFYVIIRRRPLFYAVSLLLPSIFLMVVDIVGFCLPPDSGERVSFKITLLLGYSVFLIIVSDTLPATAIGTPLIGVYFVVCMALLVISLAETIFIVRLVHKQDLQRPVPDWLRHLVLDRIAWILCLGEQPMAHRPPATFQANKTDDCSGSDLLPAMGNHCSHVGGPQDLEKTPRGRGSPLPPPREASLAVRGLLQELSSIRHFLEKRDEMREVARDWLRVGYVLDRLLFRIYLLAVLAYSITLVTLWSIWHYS", "UniProt P36544": "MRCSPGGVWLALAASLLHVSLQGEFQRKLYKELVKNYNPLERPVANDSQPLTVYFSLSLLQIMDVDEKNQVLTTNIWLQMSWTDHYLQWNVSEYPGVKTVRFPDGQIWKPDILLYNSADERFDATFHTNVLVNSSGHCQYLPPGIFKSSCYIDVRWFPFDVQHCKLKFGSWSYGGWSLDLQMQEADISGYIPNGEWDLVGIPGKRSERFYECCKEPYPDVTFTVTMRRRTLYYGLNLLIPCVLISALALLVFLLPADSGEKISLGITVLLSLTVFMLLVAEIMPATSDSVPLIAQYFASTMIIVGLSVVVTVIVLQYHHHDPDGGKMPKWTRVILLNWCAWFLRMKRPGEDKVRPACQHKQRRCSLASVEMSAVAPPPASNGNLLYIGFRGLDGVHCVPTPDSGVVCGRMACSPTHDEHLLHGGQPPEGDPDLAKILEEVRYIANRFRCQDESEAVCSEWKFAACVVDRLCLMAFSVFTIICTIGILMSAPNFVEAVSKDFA"}, "source": "patent US20180244653A1", "about": "“SELECTIVE ALPHA-7 NICOTINIC RECEPTOR AGONISTS AND METHODS FOR MAKING AND USING THEM” (THE REGENTS OF THE UNIVERSITY OF CALIFORNIA, priority 2015, published 2018)", "molecular_target": "α7/5HT3A chimera receptor (hα7/m5HT3A), used for α7-nAChRs (UniProt P23979+P36544, M226I/T225I)", "experiment": "Intact cell competitive radioligand binding assay ([3H]-(±)-epibatidine, SPA), LGIC-CNiFERs", "conditions": "read-out: Kd ± SD, α7-nAChRs; >10 = did not pass initial screen at 10 μM", "note": "Where “and” joins values, the source holds several entries; their conditions need not be identical. Identical values can stand only once. Some entries share one result that the patent states for a list of compounds. At least one compound was matched to its structure with a doubt left.", "data": [{"smiles": "c1cc2cc(-c3cn(C4CN5CCC4CC5)nn3)ccc2[nH]1", "note": "(stereo not shown) [IND8, 5-((Quinuclid-3-yl)-1H-1,2,3-triazol-4-yl)-1H-indole]", "values": [{"measurement": "Kd", "value": "< 170 nM and 120 to 2980 nM"}]}]}
